Reference: paper PMC11189624

How the values were obtained:
[1] = molecular target: Flag-Myo5a-MTD (residues 1106–1467), bacterial-expressed; experiment: pull-down; GST pulldown of GST-Mlph-ABD and Flag-Mlph-EFBD in the presence of Flag-Myo5a-MTD; Western blot with anti-Flag; both purified
[2] = molecular target: Flag-Myo5a-MTD (residues 1106–1467), bacterial-expressed; experiment: pull-down; Flag pulldown: 0.5 uM Flag-Myo5a-MTD with 1 uM GST-tagged Mlph truncations, anti-FLAG M2 agarose, Pulldown Buffer I, 4 °C, 2 hr; eluted with FLAG peptide; SDS-PAGE with CBB staining; both purified

B1: Flag-Mlph-EFBD (residues 241–400) (domain or fragment, UniProt Q91V27 241-400)
chain: EGLEETGARALGCRPSPEVQPCSPLPSGEDAHAELDSPAASCKSAFGTTAMPGTDDVRGKHLPSQYLADVDTSDEDSIQGPRAASQHSKRRARTVPETQILELNKRMSAVEHLLVHLENTVLPPSAQEPTVETHPSADTEEETLRRRLEELTSNISGSST
Question: With B1 as the binder, how does the binding [1] read?
Answer: Its binding is “binds”.

B2: GST-Mlph-ΔRBD (residues 148–590) (domain or fragment, UniProt Q91V27 148-590)
chain: GGGSEPSLEEGNGDSEQTDEDGDLDTEARDQPLNSKKKKRLLSFRDVDFEEDSDHLVQPCSQTLGLSSVPESAHSLQSLSGEPYSEDTTSLEPEGLEETGARALGCRPSPEVQPCSPLPSGEDAHAELDSPAASCKSAFGTTAMPGTDDVRGKHLPSQYLADVDTSDEDSIQGPRAASQHSKRRARTVPETQILELNKRMSAVEHLLVHLENTVLPPSAQEPTVETHPSADTEEETLRRRLEELTSNISGSSTSSEDETKPDGTFLGGSPKVCTDTGHMETQERNPRSPGNPARPTKSTDEELSEMEDRVAMTASEVQQAESEISDIESRIAALRAAGLTVKPSGKPRRKSGIPIFLPRVTEKLDRIPKTPPADPDDQAKMPKATTAVPSLLRRKYSPSSQGVDSGSFDRKSVYRGSLTQRNPNGRRGTARHIFAKPVMAQQP
Question: Which binding [2] does the source give for B2 here?
Answer: Its binding is “binds”.

No constants are given. Whether binding was seen depends on the method and setting. Binding can be weak; no strength is given. Tags and fused reporters may be left off the sequences shown.
